The other results are listed elsewhere or left out.
Assays:
Test in all cases: log2 fold change, soluble protein after heating vs DMSO (PISA); higher = thermal stabilisation; K562 cells, 10 uM, 30 min; active = over 0.2 and 3.5 SD of the protein, either way, in both replicates (recomputed)
[1] = compound: CC1=C(C=C(C=C1)NC(=O)C2=CC(=CC=C2)C(C)(C)C#N)NC3=CC4=C(C=C3)N=CN(C4=O)C
In short: (§1)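 K562 cells (2×10^6 cells/mL) were treated with 10 μM compound for 30 min, and aliquots were heated for 3 min over 48°C-58°C. Pooled aliquots were extracted in PBS with 0.5% NP-40 at 4°C, and the supernatant after 21,000xg for 90 min was measured by TMTpro 16plex LC-MS/MS with channel sums equalised. Reported thermal stability, relative to control samples and from duplicates, is a log2 fold change.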

Amino acid sequences for entries named in this document (tags omitted). A change or cut given only in a name is not applied to a line headed by its entry.
UniProt Q6QNK2: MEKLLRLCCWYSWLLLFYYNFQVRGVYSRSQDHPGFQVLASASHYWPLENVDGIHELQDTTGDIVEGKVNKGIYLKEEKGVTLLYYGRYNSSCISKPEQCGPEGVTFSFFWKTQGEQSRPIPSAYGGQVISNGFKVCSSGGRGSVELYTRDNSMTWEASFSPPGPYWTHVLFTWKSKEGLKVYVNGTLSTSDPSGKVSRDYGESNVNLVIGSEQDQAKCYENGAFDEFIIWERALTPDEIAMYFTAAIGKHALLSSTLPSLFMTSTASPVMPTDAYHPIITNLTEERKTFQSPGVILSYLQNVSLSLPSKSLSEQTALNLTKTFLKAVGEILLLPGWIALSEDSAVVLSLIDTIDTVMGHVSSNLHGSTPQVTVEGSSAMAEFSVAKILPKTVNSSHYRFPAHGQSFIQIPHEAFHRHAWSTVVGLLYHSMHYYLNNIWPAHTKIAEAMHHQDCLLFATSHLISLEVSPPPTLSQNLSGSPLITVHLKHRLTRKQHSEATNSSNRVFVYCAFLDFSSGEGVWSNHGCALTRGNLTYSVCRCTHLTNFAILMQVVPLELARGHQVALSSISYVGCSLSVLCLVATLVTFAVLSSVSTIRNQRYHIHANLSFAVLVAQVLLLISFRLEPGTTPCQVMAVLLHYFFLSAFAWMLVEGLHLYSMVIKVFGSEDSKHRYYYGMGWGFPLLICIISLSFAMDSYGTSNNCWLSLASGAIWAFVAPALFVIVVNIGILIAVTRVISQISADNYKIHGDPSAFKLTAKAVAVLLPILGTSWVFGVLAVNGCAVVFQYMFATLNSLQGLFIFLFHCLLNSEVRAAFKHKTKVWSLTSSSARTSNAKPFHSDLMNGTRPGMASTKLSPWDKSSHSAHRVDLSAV
UniProt Q9UPW5: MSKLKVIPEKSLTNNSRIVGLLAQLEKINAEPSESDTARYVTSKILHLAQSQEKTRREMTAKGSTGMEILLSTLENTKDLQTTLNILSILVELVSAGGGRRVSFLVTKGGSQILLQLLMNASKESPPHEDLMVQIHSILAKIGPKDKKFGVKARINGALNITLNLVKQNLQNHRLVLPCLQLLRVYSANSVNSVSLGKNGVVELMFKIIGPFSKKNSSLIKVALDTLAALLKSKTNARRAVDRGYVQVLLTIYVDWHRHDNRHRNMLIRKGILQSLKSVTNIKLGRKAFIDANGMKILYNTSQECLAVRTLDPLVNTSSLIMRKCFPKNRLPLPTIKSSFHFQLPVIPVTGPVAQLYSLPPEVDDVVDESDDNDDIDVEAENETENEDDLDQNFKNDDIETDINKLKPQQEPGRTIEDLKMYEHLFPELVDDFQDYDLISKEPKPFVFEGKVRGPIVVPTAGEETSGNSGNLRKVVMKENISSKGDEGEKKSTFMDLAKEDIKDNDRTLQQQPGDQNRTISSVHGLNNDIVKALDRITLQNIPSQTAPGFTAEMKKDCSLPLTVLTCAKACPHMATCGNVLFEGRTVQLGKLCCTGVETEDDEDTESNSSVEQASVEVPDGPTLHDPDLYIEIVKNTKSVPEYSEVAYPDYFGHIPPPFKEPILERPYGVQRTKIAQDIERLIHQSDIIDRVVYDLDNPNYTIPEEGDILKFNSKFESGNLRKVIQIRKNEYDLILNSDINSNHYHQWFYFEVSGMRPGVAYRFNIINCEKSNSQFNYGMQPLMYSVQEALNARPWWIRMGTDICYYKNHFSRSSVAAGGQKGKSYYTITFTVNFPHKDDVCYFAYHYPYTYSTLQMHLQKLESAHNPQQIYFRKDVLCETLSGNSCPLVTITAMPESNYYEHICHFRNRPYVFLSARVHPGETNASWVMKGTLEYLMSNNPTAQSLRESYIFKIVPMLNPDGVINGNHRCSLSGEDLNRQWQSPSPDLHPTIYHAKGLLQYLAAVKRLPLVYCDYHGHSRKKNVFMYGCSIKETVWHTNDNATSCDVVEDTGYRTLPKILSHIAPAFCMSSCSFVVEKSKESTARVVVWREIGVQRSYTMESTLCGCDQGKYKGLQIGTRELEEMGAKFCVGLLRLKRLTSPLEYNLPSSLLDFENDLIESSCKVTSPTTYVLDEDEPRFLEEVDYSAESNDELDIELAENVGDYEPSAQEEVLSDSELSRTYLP
UniProt P51825: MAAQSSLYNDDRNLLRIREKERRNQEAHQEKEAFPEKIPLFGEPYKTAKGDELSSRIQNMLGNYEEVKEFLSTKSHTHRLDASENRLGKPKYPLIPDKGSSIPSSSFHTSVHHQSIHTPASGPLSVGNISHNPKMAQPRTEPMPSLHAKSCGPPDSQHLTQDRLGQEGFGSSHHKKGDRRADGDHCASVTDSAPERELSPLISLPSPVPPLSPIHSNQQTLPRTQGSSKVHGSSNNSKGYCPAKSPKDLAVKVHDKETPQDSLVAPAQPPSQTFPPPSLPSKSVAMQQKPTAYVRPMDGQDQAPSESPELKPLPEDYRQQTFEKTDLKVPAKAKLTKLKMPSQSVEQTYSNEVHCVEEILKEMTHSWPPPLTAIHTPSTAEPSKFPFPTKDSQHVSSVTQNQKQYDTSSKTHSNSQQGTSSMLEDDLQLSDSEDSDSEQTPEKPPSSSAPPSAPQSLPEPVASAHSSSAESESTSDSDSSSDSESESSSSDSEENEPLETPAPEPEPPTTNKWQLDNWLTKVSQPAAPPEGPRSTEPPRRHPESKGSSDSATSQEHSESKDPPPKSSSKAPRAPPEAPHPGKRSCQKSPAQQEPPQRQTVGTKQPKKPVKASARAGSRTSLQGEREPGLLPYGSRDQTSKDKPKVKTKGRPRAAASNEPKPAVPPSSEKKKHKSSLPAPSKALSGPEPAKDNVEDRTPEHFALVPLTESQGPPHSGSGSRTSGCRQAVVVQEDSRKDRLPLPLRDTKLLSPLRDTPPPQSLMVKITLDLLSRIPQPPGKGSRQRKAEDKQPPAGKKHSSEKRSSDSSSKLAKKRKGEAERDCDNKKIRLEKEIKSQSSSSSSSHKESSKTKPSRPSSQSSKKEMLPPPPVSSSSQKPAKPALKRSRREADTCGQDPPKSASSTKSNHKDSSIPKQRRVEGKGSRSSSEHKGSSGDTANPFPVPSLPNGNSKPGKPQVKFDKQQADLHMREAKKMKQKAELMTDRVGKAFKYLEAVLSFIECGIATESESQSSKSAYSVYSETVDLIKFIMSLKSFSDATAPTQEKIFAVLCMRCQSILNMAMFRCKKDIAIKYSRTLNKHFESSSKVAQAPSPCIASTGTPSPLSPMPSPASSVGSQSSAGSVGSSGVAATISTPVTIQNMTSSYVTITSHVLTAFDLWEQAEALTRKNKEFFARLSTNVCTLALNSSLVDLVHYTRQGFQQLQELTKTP
UniProt Q96Q42: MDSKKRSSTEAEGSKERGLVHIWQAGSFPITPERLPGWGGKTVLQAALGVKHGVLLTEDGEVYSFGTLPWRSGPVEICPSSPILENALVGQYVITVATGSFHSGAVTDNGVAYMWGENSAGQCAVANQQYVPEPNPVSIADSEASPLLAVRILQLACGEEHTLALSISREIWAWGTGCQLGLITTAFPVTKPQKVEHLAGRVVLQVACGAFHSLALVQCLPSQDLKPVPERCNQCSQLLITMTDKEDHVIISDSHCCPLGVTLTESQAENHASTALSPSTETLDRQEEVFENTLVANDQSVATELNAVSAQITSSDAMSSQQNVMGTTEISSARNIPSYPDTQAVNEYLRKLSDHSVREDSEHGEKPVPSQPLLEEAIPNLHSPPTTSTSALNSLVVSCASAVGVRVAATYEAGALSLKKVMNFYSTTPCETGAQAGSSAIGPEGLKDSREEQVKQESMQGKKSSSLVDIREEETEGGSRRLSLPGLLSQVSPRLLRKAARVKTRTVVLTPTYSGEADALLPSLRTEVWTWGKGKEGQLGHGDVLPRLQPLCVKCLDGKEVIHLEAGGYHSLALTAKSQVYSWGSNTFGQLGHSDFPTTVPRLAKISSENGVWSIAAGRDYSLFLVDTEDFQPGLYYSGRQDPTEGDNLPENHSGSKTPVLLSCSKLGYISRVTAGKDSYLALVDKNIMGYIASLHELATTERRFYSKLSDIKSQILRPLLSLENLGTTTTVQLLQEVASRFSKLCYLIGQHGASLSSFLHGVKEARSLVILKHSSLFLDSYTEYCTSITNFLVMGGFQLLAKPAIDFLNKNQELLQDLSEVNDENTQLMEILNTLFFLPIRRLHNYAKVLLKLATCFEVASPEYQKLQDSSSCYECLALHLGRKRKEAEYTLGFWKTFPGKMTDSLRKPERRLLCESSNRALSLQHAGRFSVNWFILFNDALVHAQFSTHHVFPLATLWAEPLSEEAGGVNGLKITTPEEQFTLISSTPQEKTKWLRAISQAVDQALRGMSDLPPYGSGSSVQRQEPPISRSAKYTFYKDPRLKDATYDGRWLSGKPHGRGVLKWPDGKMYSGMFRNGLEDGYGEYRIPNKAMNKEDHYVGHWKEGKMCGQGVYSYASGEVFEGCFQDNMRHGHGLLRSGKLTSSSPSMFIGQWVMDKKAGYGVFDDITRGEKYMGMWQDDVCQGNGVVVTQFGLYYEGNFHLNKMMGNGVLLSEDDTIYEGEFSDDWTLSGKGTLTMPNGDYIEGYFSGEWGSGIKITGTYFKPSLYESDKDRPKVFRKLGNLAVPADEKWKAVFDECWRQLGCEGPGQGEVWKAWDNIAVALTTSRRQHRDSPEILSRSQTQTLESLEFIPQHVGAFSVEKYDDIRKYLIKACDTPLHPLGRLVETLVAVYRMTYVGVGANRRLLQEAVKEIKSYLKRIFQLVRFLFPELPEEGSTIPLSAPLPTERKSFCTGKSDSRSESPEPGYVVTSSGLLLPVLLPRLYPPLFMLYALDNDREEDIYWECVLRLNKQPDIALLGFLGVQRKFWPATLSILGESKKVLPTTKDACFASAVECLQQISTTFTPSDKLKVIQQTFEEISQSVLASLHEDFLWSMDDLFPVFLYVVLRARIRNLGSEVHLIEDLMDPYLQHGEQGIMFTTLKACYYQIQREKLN
UniProt P51648: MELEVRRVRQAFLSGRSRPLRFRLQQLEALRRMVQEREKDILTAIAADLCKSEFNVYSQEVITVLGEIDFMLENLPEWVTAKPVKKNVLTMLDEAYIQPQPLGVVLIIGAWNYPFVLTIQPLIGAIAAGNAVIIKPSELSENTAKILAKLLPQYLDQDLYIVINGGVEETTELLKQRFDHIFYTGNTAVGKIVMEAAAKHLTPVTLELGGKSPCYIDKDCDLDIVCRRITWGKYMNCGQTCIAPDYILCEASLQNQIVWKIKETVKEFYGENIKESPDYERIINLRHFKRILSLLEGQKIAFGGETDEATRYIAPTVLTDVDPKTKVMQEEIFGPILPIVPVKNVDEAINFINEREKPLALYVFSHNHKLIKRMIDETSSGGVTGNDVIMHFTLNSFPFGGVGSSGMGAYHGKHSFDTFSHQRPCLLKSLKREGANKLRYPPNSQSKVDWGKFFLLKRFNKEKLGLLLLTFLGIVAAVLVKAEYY
UniProt Q9BT30: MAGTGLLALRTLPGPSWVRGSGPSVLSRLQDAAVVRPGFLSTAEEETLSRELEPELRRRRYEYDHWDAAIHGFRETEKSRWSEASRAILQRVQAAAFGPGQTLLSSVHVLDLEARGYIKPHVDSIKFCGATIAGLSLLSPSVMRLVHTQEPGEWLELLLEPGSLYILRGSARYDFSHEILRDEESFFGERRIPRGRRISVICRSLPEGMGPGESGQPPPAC
UniProt P51857: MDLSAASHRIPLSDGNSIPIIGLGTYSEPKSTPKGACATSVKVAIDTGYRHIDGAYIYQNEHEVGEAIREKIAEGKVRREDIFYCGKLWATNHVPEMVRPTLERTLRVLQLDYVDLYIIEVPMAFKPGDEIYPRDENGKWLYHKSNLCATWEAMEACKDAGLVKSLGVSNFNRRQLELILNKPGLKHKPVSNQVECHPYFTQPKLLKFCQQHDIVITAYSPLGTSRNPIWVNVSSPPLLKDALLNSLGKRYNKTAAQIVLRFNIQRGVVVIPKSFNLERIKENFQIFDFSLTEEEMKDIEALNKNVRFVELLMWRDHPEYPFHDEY
UniProt Q9Y4X0: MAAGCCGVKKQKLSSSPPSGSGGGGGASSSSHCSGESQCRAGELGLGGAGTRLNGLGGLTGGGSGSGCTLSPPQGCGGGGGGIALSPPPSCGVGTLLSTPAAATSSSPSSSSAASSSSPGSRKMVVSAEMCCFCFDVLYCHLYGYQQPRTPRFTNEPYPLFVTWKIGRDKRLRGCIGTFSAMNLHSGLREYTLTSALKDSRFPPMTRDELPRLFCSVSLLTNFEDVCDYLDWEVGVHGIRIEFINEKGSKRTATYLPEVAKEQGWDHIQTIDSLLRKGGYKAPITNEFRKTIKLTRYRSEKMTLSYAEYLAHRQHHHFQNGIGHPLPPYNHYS

[2] = compound: CC1=C(C=C(C=C1)NC(=O)C2=CC(=CC=C2)N(C)C)NC(=O)C3=CC=C(C=C3)O
In short: as §1

[3] = compound: CC1=NC(=CC=C1)C2=C(N=C(N2)C(C)(C)C)C3=CC4=NC=CN=C4C=C3
In short: as §1

Nexturastat A = compound: CCCCN(Cc1ccc(C(=O)NO)cc1)C(=O)Nc1ccccc1 [Nexturastat A]
In short: as §1

vemurafenib = compound: CCCS(=O)(=O)Nc1ccc(F)c(C(=O)c2c[nH]c3ncc(-c4ccc(Cl)cc4)cc23)c1F [vemurafenib]
In short: as §1

givinostat = compound: CCN(CC)Cc1ccc2cc(COC(=O)Nc3ccc(C(=O)NO)cc3)ccc2c1 [givinostat]
In short: as §1

[4] = compound: CC[C@@H]1C(=O)N(C)c2cnc(Nc3ccc(C(=O)NC4CCN(C)CC4)cc3OC)nc2N1C1CCCC1
In short: as §1

epoxomicin = compound: CC[C@H](C)[C@@H](C(=O)N[C@@H]([C@@H](C)O)C(=O)N[C@@H](CC(C)C)C(=O)[C@]1(CO1)C)NC(=O)[C@H]([C@@H](C)CC)N(C)C(=O)C [epoxomicin]
In short: as §1

[5] = compound: CCn1c(C(=O)N(C2CC2)C2CC2)cc2c3c(ncn3C)c(Nc3cc(C)n(C)n3)nc21
In short: as §1

[6] = compound: CN(C)CC(=O)Nc1ccc2[nH]c(=O)c3ccccc3c2c1
In short: as §1

[7] = compound: CC1=CC=C(C=C1)SC2=C3C=C(SC3=CN=C2)C(=O)N
In short: as §1

[8] = compound: CCCS(=O)(=O)Nc1ccc(F)c(C(=O)c2c[nH]c3ncc(Cl)cc23)c1F
In short: as §1

volasertib = compound: CC[C@@H]1C(=O)N(C)c2cnc(Nc3ccc(C(=O)N[C@H]4CC[C@H](N5CCN(CC6CC6)CC5)CC4)cc3OC)nc2N1C(C)C [volasertib]
In short: as §1

[9] = compound: CCn1cc(-c2ccnc3[nH]c(-c4cccc(CN(C)C)c4)cc23)c(-c2ccc(NC(=O)N(C)C)cc2)n1
In short: as §1

[10] = compound: CN1C2=C(C3=C1C(=O)N(N=C3)CC4=CC(=CC=C4)N)SC(=C2)S(=O)C
In short: as §1

[11] = compound: CN1CCC(CNc2ccc3ncc(-c4cccc(OC(F)(F)F)c4)n3n2)CC1
In short: as §1

barasertib = compound: CCN(CCCOc1ccc2c(Nc3cc(CC(=O)Nc4cccc(F)c4)[nH]n3)ncnc2c1)CCOP(=O)(O)O [barasertib]
In short: as §1

rosiglitazone = compound: CN(CCOC1=CC=C(C=C1)C[C@H]2C(=O)NC(=O)S2)C3=CC=CC=N3 (racemic) [rosiglitazone]
In short: as §1

[12] = compound: CCCc1cc(C)[nH]c(=O)c1CNC(=O)c1cc(-c2ccnc(N3CCN(C)CC3)c2)cc2c1cnn2C(C)C
In short: as §1

[13] = compound: CC[C@H](C)N1C=C(C2=C(C=C(C=C21)C3=CN=C(C=C3)N4CCNCC4)C(=O)NCC5=C(C=C(NC5=O)C)C)C
In short: as §1

Measured: log2 fold change

ADCK5 (UniProt Q3MIX3)
inactive: [1] 0.044 | [2] 0.036 | [3] 0.011 | Nexturastat A -0.195 | vemurafenib 0.202 | givinostat 0.032 | [4] 0.025 | epoxomicin 0.072 | [5] 0.077 | [6] -0.144

AMDHD2 (UniProt Q9Y303)
inactive: [1] 0.058 | [7] -0.08 | vemurafenib -0.012 | [8] -0.085 | givinostat -0.16 | [4] -0.174 | volasertib 0.08 | [5] 0.169 | [9] -0.118 | [6] 0.064 | [10] -0.156 | [11] 0.057

AEBP2 (UniProt Q6ZN18)
inactive: [3] 0.257 | Nexturastat A -0.03 | givinostat 0.113 | barasertib 0.24 | [4] 0.006 | epoxomicin 0.071 | [5] -0.015 | rosiglitazone 0.083

ADGRD1 isoform 4 (UniProt Q6QNK2)
inactive: [3] 0.181 | vemurafenib 0.042 | [12] -0.038 | [4] -0.206 | [6] 0.082 | [10] 0.126

AKAP9 isoform 6 (UniProt Q99996)
inactive: [2] 0.203 | [3] -0.408 | Nexturastat A 0.547 | [12] -0.137 | [4] 0.065 | [13] -0.038 | epoxomicin 0.291

AKR1C1 (UniProt Q04828)
inactive: [12] -0.084

Pulled one by one from the entries so far, 2 records:
AMDHD2 (UniProt Q9Y303)
inactive: [1] 0.058 | [7] -0.08 | vemurafenib -0.012 | [8] -0.085 | givinostat -0.16 | [4] -0.174 | volasertib 0.08 | [5] 0.169 | [9] -0.118 | [6] 0.064 | [10] -0.156 | [11] 0.057

AKAP9 isoform 6 (UniProt Q99996)
inactive: [2] 0.203 | [3] -0.408 | Nexturastat A 0.547 | [12] -0.137 | [4] 0.065 | [13] -0.038 | epoxomicin 0.291

Going on with the list.

ADGB (UniProt Q8N7X0)
inactive: [7] -0.019 | [3] -0.322 | Nexturastat A 0.019 | [8] -0.056 | [12] 0.077 | [4] -0.281 | volasertib 0.042 | epoxomicin -0.025 | [9] 0.111 | [11] -0.545

AGTPBP1 isoform 3 (UniProt Q9UPW5)
inactive: [2] 0 | [3] 0.027 | vemurafenib 0.121 | [12] 0.21 | [6] -0.362 | [10] 0.103

AFF1 isoform 2 (UniProt P51825)
inactive: [7] -0.171 | [3] 0.02 | Nexturastat A 0.253 | vemurafenib -0.086 | [8] -0.074 | [12] -0.109 | givinostat 0.088 | barasertib -0.078 | [4] 0.12 | volasertib 0.021 | [13] -0.212 | epoxomicin -0.014 | [5] 0.01 | [9] 0.123 | [6] 0.104 | rosiglitazone 0.022 | [10] 0.057 | [11] -0.146

ALS2 (UniProt Q96Q42)
inactive: [2] 0.237 | [7] 0.009 | Nexturastat A 0.022 | [8] -0.057 | givinostat 0.027 | volasertib 0.137 | epoxomicin -0.307 | [5] 0.027

ALDH3A2 isoform 2 (UniProt P51648)
inactive: [3] -0.236 | vemurafenib -0.032 | givinostat -0.136 | barasertib 0.074 | [5] 0.056 | [6] -0.34 | rosiglitazone -0.058 | [10] 0.2

ALKBH7 (UniProt Q9BT30)
inactive: [2] 0.036 | [9] -0.048 | [11] -0.2

AKR1D1 (UniProt P51857)
inactive: [7] 0.023 | vemurafenib -0.018 | [8] -0.034 | barasertib -0.082 | volasertib 0.068 | [9] -0.087 | [6] 0.016 | rosiglitazone 0.007 | [10] 0.139 | [11] 0.124

AMBP (UniProt P02760)
inactive: [7] 0.111 | [3] -0.045 | vemurafenib 0.223 | [8] -0.244 | [12] -0.266 | givinostat -0.272 | barasertib -0.068 | [4] 0 | volasertib 0.072 | [5] -0.225 | [9] -0.024 | [6] 0.001 | rosiglitazone -0.01 | [10] 0.242 | [11] 0.262

AMMECR1 (UniProt Q9Y4X0)
inactive: [2] -0.129 | Nexturastat A 0.183 | vemurafenib 0.117 | givinostat 0.21 | epoxomicin 0.098 | [5] -0.089 | [6] -0.12 | [10] 0.206

— the supplement of paper PMC10849652
